Patent US20170204176A1
These are yes or no findings as the source states them, for the method shown. Some binding calls cover weakened binding; strength is not graded here.

Chains of the proteins cited; added tags and fusions are not shown. Lines headed by an entry give the natural chain unless they say otherwise; changes in a name come on top.
UniProt O14763: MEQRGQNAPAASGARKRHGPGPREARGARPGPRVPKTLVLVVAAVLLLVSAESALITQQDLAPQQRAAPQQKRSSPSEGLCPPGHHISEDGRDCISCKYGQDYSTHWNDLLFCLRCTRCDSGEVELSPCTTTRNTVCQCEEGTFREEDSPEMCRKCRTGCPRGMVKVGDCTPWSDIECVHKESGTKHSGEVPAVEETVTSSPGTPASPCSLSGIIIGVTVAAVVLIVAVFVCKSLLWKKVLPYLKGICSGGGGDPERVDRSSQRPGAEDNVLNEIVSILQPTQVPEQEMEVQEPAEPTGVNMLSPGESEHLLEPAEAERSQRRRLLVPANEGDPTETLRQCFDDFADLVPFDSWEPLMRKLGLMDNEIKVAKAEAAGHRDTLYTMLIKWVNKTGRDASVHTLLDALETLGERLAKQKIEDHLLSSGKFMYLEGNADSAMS

Legend:
[1] = biological target: human DR5-Fc fusion protein (human) (UniProt O14763); assay: ELISA on DR5-Fc fusion coat with or without TRAIL-His
[2] = biological target: human DR5-Fc fusion protein (human) (UniProt O14763); assay: competition ELISA on DR5-Fc fusion coat
[3] = biological target: human DR5 (human) (UniProt O14763); assay: titration with fluorescence readout (y axis: Log MFI); the text does not describe the assay format

Measured: binding

B1: DR5 mAb 1 (antibody, V domains shown)
VH: EVKFLESGGGLVQPGGSLKLSCVASGFDFSRYWMSWVRQAPGKGLEWIGEINPDSNTINYTPSLKDKFIISRDNAKNTLYLQMTKVRSEDTALYYCTRRAYYGNPAWFAYWGQGTLVTVSS
VL: DIVLTQSPASLAVSLGQRATISCRASKSVSSSGYSYMHWYQQKPGQPPKVLIFLSSNLDSGVPARFSGSGSGTDFTLNIHPVEDGDAATYYCQHSRDLPPTFGGGTKLEIK
binds: all assays above

B2: DR5 mAb 2 (antibody, V domains shown)
VH: KVQLQQSGAELVKPGASVKLSCKASGYTFTEYILHWVKQKSGQGLEWIGWFYPGNNNIKYNEKFKDKATLTADKSSSTVYMELSRLTSEDSAVYFCARHEQGPGYFDYWGQGTTLTVSS
VL: DIVMTQSHKFMSTSVGDRVSITCKASQDVNTAVAWYQQKPGQSPKLLIYWASTRHTGVPDRFTGSGSGTDYTLTIKSVQAEDLTLYYCQQHYITPWTFGGGTKLEIK
binds: all assays above
